{"source": "patent US20110217715A1", "about": "“GENE EXPRESSION IN DUCHENNE MUSCULAR DYSTROPHY” (CHILDREN'S HOSPITAL MEDICAL CENTER, priority 2008, published 2011)", "system": "mRNA expression in peripheral blood of individuals with DMD", "assay": "Whole-blood gene expression microarray: DMD administered deflazacort vs DMD administered prednisone", "format": "in vivo, human", "details": "vs. prednisone", "description": "Fifteen ml of blood was collected from each individual into 6 PAXgene® Vacutainer® tubes (PreAnalytiX, Germany) by antecubital fossa venipuncture. PAXgene® tubes contain a proprietary reagent that immediately stabilizes RNA, thus reducing RNA degradation and minimizing gene expression changes following phlebotomy. The tubes were then inverted 20 times, then remained undisturbed for 2 h at room temperature (about 19° C. to about 22° C.), and then stored at -70° C. until processed. Total RNA was isolated using the Paxgene® blood RNA kit (PreAnalytiX, Germany) according to the manufacturers instructions. The RNA isolated is from all cells in whole blood. Typical yields of total RNA isolated from about 7.5 ml of human whole blood were between 10 μg RNA and 40 μg RNA. RNA quality and purity was analyzed by spectrophotometry using the Nanodrop ND-1000, and RNA integrity was analyzed using the Agilent 2100 Bioanalyzer. […] Sample labeling, hybridization to chips, and image scanning were performed using standard Affymetrix protocols. For each whole blood sample from control individuals and individuals with DMD, total RNA was labeled using the One-Cycle Target Labeling protocol and hybridized to the arrays. […] Double-stranded cDNA synthesis, biotin-labeled cRNA synthesis, and cRNA fragmentation were performed according to the Affymetrix GeneChip Eukaryotic Expression Analysis protocol. The labeled, fragmented cRNA (15 μg) was hybridized at 45° C. overnight. After hybridization, the array was washed and stained. The arrays were scanned with an argon-ion laser at λ=570 nm, with a resolution of 3 μm/pixel (Affymetrix, Inc.). After scanning the array, the raw probe level values for each probe were saved in Affymetrix.cel files. […] Statistical analyses, including t-test analyses, unsupervised hierarchical clustering, and principal component analyses were conducted using Genespring 7.2 software ([…]® 7, Silicon Genetics, Redwood City Calif.). […] Corrections for multiple comparisons used a Benjamini-Hochberg False Discovery Rate (FDR) of 0.05, disclosed in Tang et al., J Cereb Blood Flow Metab 26 (2006) 1089, which is expressly incorporated by reference herein in its entirety. […] Sample processing and array hybridization, probe-level data analysis, and statistical analysis were identical to Example 1.", "note": "This continues a long series; more values of the same kind are listed elsewhere.", "data": [{"smiles": "CC(=O)OCC(=O)[C@@]12N=C(C)O[C@@H]1C[C@H]1[C@@H]3CCC4=CC(=O)C=C[C@]4(C)[C@H]3[C@@H](O)C[C@@]12C", "note": "[deflazacort]", "values": [{"measurement": "p-value", "setting": "NDE1, BF973292, nucleic acid 2138", "value": 0.024}, {"measurement": "p-value", "setting": "NDE1, NM_017668, nucleic acid 2139", "value": 0.0358}, {"measurement": "p-value", "setting": "NFIC, AW134798, nucleic acid 2140", "value": 0.0141}, {"measurement": "p-value", "setting": "NKTR, AI880383, nucleic acid 2141", "value": 0.0222}, {"measurement": "p-value", "setting": "NM_173704, nucleic acid 2284", "value": 0.0147}, {"measurement": "p-value", "setting": "NOTCH2, AA291203, nucleic acid 2142", "value": 0.00739}, {"measurement": "p-value", "setting": "NOTCH2, AF308601, nucleic acid 1046", "value": 0.0265}, {"measurement": "p-value", "setting": "NOTCH2NL, AW516297, nucleic acid 2143", "value": 0.0362}, {"measurement": "p-value", "setting": "NSF, AK025172, nucleic acid 2144", "value": 0.0411}, {"measurement": "p-value", "setting": "NUDT4, NUDT4P1, AF191653, nucleic acid 1738", "value": 0.0352}, {"measurement": "p-value", "setting": "OLIG1, AL355743, nucleic acid 1399", "value": 0.00583}, {"measurement": "p-value", "setting": "OSBP2, BE501253, nucleic acid 2319", "value": 0.0334}, {"measurement": "p-value", "setting": "OSTF1, NM_012383, nucleic acid 2145", "value": 0.0203}, {"measurement": "p-value", "setting": "PACSIN2, NM_007229, nucleic acid 2146", "value": 0.0409}, {"measurement": "p-value", "setting": "PAPD4, AW104325, nucleic acid 2147", "value": 0.00878}, {"measurement": "p-value", "setting": "PARP9, AI738416, nucleic acid 2148", "value": 0.0394}, {"measurement": "p-value", "setting": "PARVG, AL355092, nucleic acid 2149", "value": 0.0293}, {"measurement": "p-value", "setting": "PB1, H79538, nucleic acid 2150", "value": 0.0371}, {"measurement": "p-value", "setting": "PBX2, BE397715, nucleic acid 2151", "value": 0.0221}, {"measurement": "p-value", "setting": "PCBP2, AW025150, nucleic acid 2152", "value": 0.0394}, {"measurement": "p-value", "setting": "PDLIM5, NM_006457, nucleic acid 2153", "value": 0.0238}, {"measurement": "p-value", "setting": "PECAM1, AA702701, nucleic acid 2155", "value": 0.00909}, {"measurement": "p-value", "setting": "PECAM1, M37780, nucleic acid 2154", "value": 0.00421}, {"measurement": "p-value", "setting": "PF4V1, NM_002620, nucleic acid 2156", "value": 0.0164}, {"measurement": "p-value", "setting": "PFKFB3, NM_004566, nucleic acid 2157", "value": 0.0338}, {"measurement": "p-value", "setting": "PHACTR2, AA551142, nucleic acid 2158", "value": 0.039}, {"measurement": "p-value", "setting": "PHACTR2, NM_014721, nucleic acid 2159", "value": 0.0451}, {"measurement": "p-value", "setting": "PHCA, R12678, nucleic acid 2160", "value": 0.0221}, {"measurement": "p-value", "setting": "PHF21A, BC015714, nucleic acid 2161", "value": 0.0231}, {"measurement": "p-value", "setting": "PHGDHL1, AF339764, nucleic acid 2162", "value": 0.0444}, {"measurement": "p-value", "setting": "PICALM, AL135735, nucleic acid 2164", "value": 0.0165}, {"measurement": "p-value", "setting": "PICALM, AV722190, nucleic acid 762", "value": 0.0363}, {"measurement": "p-value", "setting": "PLEK, NM_002664, nucleic acid 2165", "value": 0.000252}, {"measurement": "p-value", "setting": "PLEKHA2, BF347859, nucleic acid 886", "value": 0.0183}, {"measurement": "p-value", "setting": "PLEKHM1, AB002354, nucleic acid 2166", "value": 0.0134}, {"measurement": "p-value", "setting": "PLSCR1, AI825926, nucleic acid 2167", "value": 0.0487}, {"measurement": "p-value", "setting": "PLXNB2, BC004542, nucleic acid 2168", "value": 0.0177}, {"measurement": "p-value", "setting": "PPGB, NM_000308, nucleic acid 2170", "value": 0.0193}, {"measurement": "p-value", "setting": "PPIG, AW970944, nucleic acid 2171", "value": 0.011}, {"measurement": "p-value", "setting": "PPM1F, BC013798, nucleic acid 2172", "value": 0.0208}, {"measurement": "p-value", "setting": "PPP3CA, AA532718, nucleic acid 2173", "value": 0.0165}, {"measurement": "p-value", "setting": "PRKACA, NM_002730, nucleic acid 2174", "value": 0.00184}, {"measurement": "p-value", "setting": "PRKAR1A, AI682905, nucleic acid 2175", "value": 0.0262}, {"measurement": "p-value", "setting": "PRKAR2B, NM_002736, nucleic acid 1688", "value": 0.0441}, {"measurement": "p-value", "setting": "PRKCD, NM_006254, nucleic acid 2176", "value": 0.0077}, {"measurement": "p-value", "setting": "PROK2, AF182069, nucleic acid 2177", "value": 0.0338}, {"measurement": "p-value", "setting": "PSENEN, NM_018468, nucleic acid 2178", "value": 0.0201}, {"measurement": "p-value", "setting": "PTGS1, NM_000962, nucleic acid 329 (first entry)", "value": 0.0419}, {"measurement": "p-value", "setting": "PTGS1, NM_000962, nucleic acid 329 (second entry)", "value": 0.0226}, {"measurement": "p-value", "setting": "PTGS1, S36219, nucleic acid 1667", "value": 0.0474}, {"measurement": "p-value", "setting": "PTGS2, AY151286, nucleic acid 2179", "value": 0.0187}, {"measurement": "p-value", "setting": "PTPN12, AL079909, nucleic acid 2180", "value": 0.00163}, {"measurement": "p-value", "setting": "PTPRE, AA775177, nucleic acid 2181", "value": 0.0161}, {"measurement": "p-value", "setting": "RAB2B, AA531016, nucleic acid 2320", "value": 0.0428}, {"measurement": "p-value", "setting": "RAB8A, BC002977, nucleic acid 2185", "value": 0.00561}, {"measurement": "p-value", "setting": "RAB11FIP1, NM_025151, nucleic acid 2182", "value": 0.0397}, {"measurement": "p-value", "setting": "RAB11FIP4, BG248313, nucleic acid 465", "value": 0.047}, {"measurement": "p-value", "setting": "RAB18, AU145607, nucleic acid 2183", "value": 0.0414}, {"measurement": "p-value", "setting": "RAB31, NM_006868, nucleic acid 2184", "value": 0.0378}, {"measurement": "p-value", "setting": "RAC1, AJ012502, nucleic acid 551", "value": 0.0328}, {"measurement": "p-value", "setting": "RAI17, AF070622, nucleic acid 1313", "value": 0.0318}, {"measurement": "p-value", "setting": "RAP1A, AW793677, nucleic acid 2186", "value": 0.0194}, {"measurement": "p-value", "setting": "RAP80, AF113675, nucleic acid 2187", "value": 0.00717}, {"measurement": "p-value", "setting": "RARA, AJ417079, nucleic acid 2188", "value": 0.00262}, {"measurement": "p-value", "setting": "RARA, U41742, nucleic acid 2321", "value": 0.0198}, {"measurement": "p-value", "setting": "RASA1, AK021812, nucleic acid 2189", "value": 0.0372}, {"measurement": "p-value", "setting": "RBBP5, NM_005057, nucleic acid 2190", "value": 0.0383}, {"measurement": "p-value", "setting": "REL, NM_002908, nucleic acid 2191", "value": 0.0166}, {"measurement": "p-value", "setting": "RERE, H71242, nucleic acid 2192", "value": 0.0354}, {"measurement": "p-value", "setting": "RFWD2, BF725688, nucleic acid 2193", "value": 0.0334}, {"measurement": "p-value", "setting": "RFX2, AK024288, nucleic acid 2194", "value": 0.0472}, {"measurement": "p-value", "setting": "RG9MTD3, AI214944, nucleic acid 2195", "value": 0.0449}, {"measurement": "p-value", "setting": "RHOQ, BC033251, nucleic acid 2196", "value": 0.0402}, {"measurement": "p-value", "setting": "RIN3, AA625133, nucleic acid 2197", "value": 0.0322}, {"measurement": "p-value", "setting": "RIT1, AL037450, nucleic acid 1675", "value": 0.0214}, {"measurement": "p-value", "setting": "RNF24, BC000213, nucleic acid 2198", "value": 0.0415}, {"measurement": "p-value", "setting": "ROCK1, AL050032, nucleic acid 2199", "value": 0.0356}, {"measurement": "p-value", "setting": "RSU1, AW515913, nucleic acid 2200", "value": 0.0152}, {"measurement": "p-value", "setting": "RUFY1, NM_025158, nucleic acid 2201", "value": 0.0258}, {"measurement": "p-value", "setting": "RUFY2, NM_017987, nucleic acid 2202", "value": 0.00853}, {"measurement": "p-value", "setting": "SEC14L1, NM_003003, nucleic acid 2203", "value": 0.0303}, {"measurement": "p-value", "setting": "SEC23B, BC005032, nucleic acid 2204", "value": 0.0301}, {"measurement": "p-value", "setting": "SECTM1, BF939675, nucleic acid 2205", "value": 0.0499}, {"measurement": "p-value", "setting": "SERPINA1, AF119873, nucleic acid 2207", "value": 0.0459}, {"measurement": "p-value", "setting": "SERPINA1, NM_000295, nucleic acid 2206", "value": 0.022}, {"measurement": "p-value", "setting": "SF3A2, L21990, nucleic acid 2208", "value": 0.0469}, {"measurement": "p-value", "setting": "SGK, NM_005627, nucleic acid 2209", "value": 0.028}, {"measurement": "p-value", "setting": "SH3BGRL2, AL035700, nucleic acid 1736", "value": 0.0258}, {"measurement": "p-value", "setting": "SIGLEC7, NM_016543, nucleic acid 2210", "value": 0.0193}, {"measurement": "p-value", "setting": "SIRPB1, NM_006065, nucleic acid 2212", "value": 0.0432}, {"measurement": "p-value", "setting": "SLC7A7, NM_003982, nucleic acid 2214", "value": 0.0242}, {"measurement": "p-value", "setting": "SLC25A36, AL136803, nucleic acid 56", "value": 0.0384}, {"measurement": "p-value", "setting": "SLC33A1, BC029450, nucleic acid 2213", "value": 0.0407}]}]}
